Taken from: PubChem BioAssay AID1259405 (NCATS, 2018)

Purpose: 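Knock-downs that lift recombinant protein yield in hamster ovary cells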 (primary screen)
Cell system: Chinese hamster CHO-K1 ovary cells with stable secreted eGFP expression
Reagents: single siRNA against mouse genes, 0.8 pmol siRNA per well (2 µl of 400 nM stock)
Time to read-out: 3 days
Detection: 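Per-well intracellular GFP measured by laser scanning cytometry, plus viability from ATP luminescence, each relative to plate median of non-targeting control wells, in %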
Scale: GFP, % of control: higher = more GFP per well, higher productivity; viability (ATP), % of control: higher = more viable cells (more ATP)
Active means: 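Called active when intracellular GFP, relative to negative control, is at or above 120%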
The deposit covers about 50,000 reagents; shown is a part drawn at random. Of all reagents, about 4,000 (8%) were called active. 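Mouse siRNA library applied to hamster cells; one well for each siRNA.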 Reagents against one gene are numbered here.

Silencing of Mup5 #1 gave: GFP, % of control 42.7; viability (ATP), % of control 21.6; inactive.
Knock-down of Mup5 #2 came out at: GFP, % of control 75.2; viability (ATP), % of control 56; inactive.
Mup5 #3 scored GFP, % of control 103; viability (ATP), % of control 44.1; inactive.
After knock-down of Eif3m #1 the results were GFP, % of control 58.8; viability (ATP), % of control 74.6; inactive.
For Eif3m #2 the deposit lists GFP, % of control 41.1; viability (ATP), % of control 52.5; inactive.
Eif3m #3 gave GFP, % of control 70.1; viability (ATP), % of control 52.1; inactive.
For Rdh5 #1, the values are GFP, % of control 82.9; viability (ATP), % of control 83; inactive.
Silencing of Rdh5 #2 came out at: GFP, % of control 52.4; viability (ATP), % of control 41.2; inactive.
For Rdh5 #3, the entry reads GFP, % of control 110; viability (ATP), % of control 88.5; inactive.
Knock-down of Hes7 #1 came out at: GFP, % of control 53.8; viability (ATP), % of control 43.6; inactive.
With knock-down of Hes7 #2 the results were GFP, % of control 81.8; viability (ATP), % of control 71.9; inactive.
After knock-down of Hes7 #3, the screen gave GFP, % of control 91.1; viability (ATP), % of control 92.4; inactive.
Cpt1c #1 gave GFP, % of control 91.6; viability (ATP), % of control 77.2; inactive.
Depletion of Cpt1c #2 gave: GFP, % of control 65.6; viability (ATP), % of control 155; inactive.
Cpt1c #3 scored GFP, % of control 124; viability (ATP), % of control 94.2; active.
Knock-down of Dync1li2 #1 came out at: GFP, % of control 122; viability (ATP), % of control 113; active.
Dync1li2 #2 scored GFP, % of control 51; viability (ATP), % of control 66.3; inactive.
After knock-down of Mrps18a #1 the results were GFP, % of control 127; viability (ATP), % of control 89.2; active.
With knock-down of Mrps18a #2, the screen gave GFP, % of control 95.2; viability (ATP), % of control 84.6; inactive.
Depletion of Mrps18a #3 came out at: GFP, % of control 90.2; viability (ATP), % of control 57.2; inactive.
With knock-down of Scd3 #1, the record shows GFP, % of control 45.7; viability (ATP), % of control 47; inactive.
Depletion of Scd3 #2 came out at: GFP, % of control 64; viability (ATP), % of control 75.9; inactive.
After knock-down of Scd3 #3, the record shows GFP, % of control 85.6; viability (ATP), % of control 97; inactive.
For Htr1f #1 the deposit lists GFP, % of control 70.1; viability (ATP), % of control 58.5; inactive.
Htr1f #2 gave GFP, % of control 59; viability (ATP), % of control 87.9; inactive.
Htr1f #3 scored GFP, % of control 59.4; viability (ATP), % of control 67.7; inactive.
For Hnrnpa2b1 #1, the values are GFP, % of control 91.7; viability (ATP), % of control 79.4; inactive.
After knock-down of Hnrnpa2b1 #2, the screen gave GFP, % of control 68.9; viability (ATP), % of control 57; inactive.
After knock-down of Hnrnpa2b1 #3, the record shows GFP, % of control 104; viability (ATP), % of control 45.3; inactive.
After knock-down of Med10 #1, the screen gave GFP, % of control 111; viability (ATP), % of control 56.6; inactive.
For Med10 #2, the entry reads GFP, % of control 86.8; viability (ATP), % of control 84.6; inactive.
Against Med10 #3, the values are GFP, % of control 144; viability (ATP), % of control 109; active.
Against Rgs8 #1 the deposit lists GFP, % of control 118; viability (ATP), % of control 87.5; inactive.
After knock-down of Rgs8 #2, the screen gave GFP, % of control 118; viability (ATP), % of control 149; inactive.
Against Rgs8 #3, the entry reads GFP, % of control 73.5; viability (ATP), % of control 103; inactive.
Knock-down of Sprr2f #1 came out at: GFP, % of control 83; viability (ATP), % of control 64.4; inactive.
With knock-down of Sprr2f #2 the results were GFP, % of control 107; viability (ATP), % of control 122; inactive.
Depletion of Sprr2f #3 came out at: GFP, % of control 136; viability (ATP), % of control 131; active.
Depletion of Ttc28 #1 gave: GFP, % of control 132; viability (ATP), % of control 93.6; active.
For Ttc28 #2, the entry reads GFP, % of control 75.9; viability (ATP), % of control 90.5; inactive.
Ttc28 #3 gave GFP, % of control 59.4; viability (ATP), % of control 101; inactive.
